In PubChem BioAssay AID330 (DTP/NCI, 2004):
The list shows only some results of the screen, not a fair sample: it is rich in T/C values a quarter to a half above the control, in often repeated tests (any T/C) and in doses without a T/C. Other doses and runs of a compound stand elsewhere. T/C gives the treated animals as a percentage of the vehicle group. Some doses have a count of surviving animals in place of a T/C: the source files T/C as zero there, which appears to mark a toxic dose or a test without result, not a measured value. Some survivor counts are full or nearly so, which does not show that the dose was tolerated: survival well below the control is almost never listed, so the zero probably covers shortened survival too. Survivors were counted at the toxicity check, usually on the fifth day, unless a day is given; later deaths do not show. Schedules are NCI's codes, read here as Q, the interval in days (D) or hours (H), X, the number of doses. Some structures stand for samples that the source files as different forms (salt, stereo form or complex); doses refer to the form tested. Marks such as (2×) stand for listed records that agree. Where survival is the endpoint, the PubChem record calls one and a half times the control and up active, and a quarter to a half above the control has no call in these data; cut-offs in other NCI protocols can differ. Some doses were run more than once; their values stand side by side, smallest first. Some T/C values carry the count of animals alive at the toxicity check (mostly the fifth day); where none is given, no animal had died by that day.

Tested on: P388 leukemia ip, CD2F1 mice, survival T/C
Experiment: NCI In Vivo Anticancer Drug Screen. Data for tumor model P388 Leukemia (intraperitoneal) in CD2F1 (CDF1) mice
Settings: T/C endpoint: median survival time, higher T/C = longer survival
[1] = dose: 60.0 mg/kg/injection, schedule: Q01DX005 (ip), vehicle: saline
[2] = dose: 120.0 mg/kg/injection, schedule: Q01DX005 (ip), vehicle: saline
[3] = dose: 240.0 mg/kg/injection, schedule: Q01DX005 (ip), vehicle: saline
[4] = dose: 50.0 mg/kg/injection, schedule: Q01DX009 (ip), vehicle: Klucel (hydroxypropylcellulose) (HPC)
[5] = dose: 100.0 mg/kg/injection, schedule: Q01DX009 (ip), vehicle: Klucel (hydroxypropylcellulose) (HPC)
[6] = dose: 200.0 mg/kg/injection, schedule: Q01DX009 (ip), vehicle: Klucel (hydroxypropylcellulose) (HPC)
[7] = dose: 100.0 mg/kg/injection, schedule: Q01DX005 (ip), vehicle: saline with Tween-80
[8] = dose: 200.0 mg/kg/injection, schedule: Q01DX005 (ip), vehicle: saline with Tween-80
[9] = dose: 50.0 mg/kg/injection, schedule: Q01DX005 (ip), vehicle: saline with Tween-80
[10] = dose: 240.0 mg/kg/injection, schedule: Q01DX005 (ip), vehicle: saline with Tween-80
[11] = dose: 400.0 mg/kg/injection, schedule: Q01DX009 (ip), vehicle: saline with Tween-80

## Fc1ccnc(F)n1
dose: 100.0 mg/kg/injection, schedule: Q04DX003 (ip), vehicle: water
  survivor count: 1 of 6
dose: 200.0 mg/kg/injection, schedule: Q04DX003 (ip), vehicle: water
  survivor count: 0 of 6
dose: 400.0 mg/kg/injection, schedule: Q04DX003 (ip), vehicle: water
  survivor count: 0 of 6

## C/C(=N/N=C(N)N)c1cnc(N/N=C(\C)c2cnc(NN)nc2C)nc1C
[1]
  survivor count: 3 of 6
[2]
  survivor count: 0 of 6
[3]
  survivor count: 0 of 6

## CC(=O)OCC1OC(n2cc(CI)nn2)C(OC(C)=O)C(OC(C)=O)C1OC(C)=O (configuration not stated)
dose: 100.0 mg/kg/injection, schedule: Q01DX009 (ip), vehicle: distilled water + Tween-80
  survivor count: 3 of 6

## CC1=C(C#N)C(C)(CCl)C(C#N)=C(C)N1C
dose: 200.0 mg/kg/injection, schedule: Q01DX009 (ip), vehicle: other
  survivor count: 0 of 6
dose: 400.0 mg/kg/injection, schedule: Q01DX009 (ip), vehicle: other
  survivor count: 0 of 6

## CCCCCCCCCC(C)N1CCCN=C1C (configuration not stated)
[4]
  survivor count: 0 of 6
[5]
  survivor count: 0 of 6
[6]
  survivor count: 0 of 6

## O=C1CN(c2cccc(C(F)(F)F)c2)C(=O)CN1/N=C/c1ccco1
[7]
  survivor count: 6 of 6
[8]
  survivor count: 6 of 6

## CCn1cnc2c(=S)nc(N)[nH]c21
[4]
  survivor count: 6 of 6
[5]
  survivor count: 6 of 6

## CCNc1ncnc2c1cnn2C
dose: 100.0 mg/kg/injection, schedule: Q01DX009 (ip), vehicle: saline sonified
  survivor count: 6 of 6
dose: 200.0 mg/kg/injection, schedule: Q01DX009 (ip), vehicle: saline sonified
  survivor count: 0 of 6
dose: 400.0 mg/kg/injection, schedule: Q04DX003 (ip), vehicle: saline sonified
  survivor count: 3 of 6

## N#CCc1ccccc1C#N
[9]
  survivor count: 3 of 5
[7]
  survivor count: 0 of 5
[8]
  survivor count: 0 of 5

## CCC1C2CC3C4N(C)c5ccccc5C45CC(C2C5O)N3C1O (configuration not stated)
dose: 120.0 mg/kg/injection, schedule: Q01DX005 (ip), vehicle: saline with Tween-80
  survivor count: 3 of 6
[10]
  survivor count: 0 of 6 (2×)

## CN1CCN(c2ccncc2S(=O)(=O)N2CCOCC2)CC1
dose: 200.0 mg/kg/injection, schedule: Q01DX009 (ip), vehicle: saline
  survivor count: 1 of 6

## Cc1cc(N/N=C/c2ccc(Cl)cc2)c2cc3c(cc2n1)OCO3
dose: 100.0 mg/kg/injection, schedule: Q01DX005 (ip), vehicle: Klucel (hydroxypropylcellulose) (HPC)
  survivor count: 4 of 6
dose: 200.0 mg/kg/injection, schedule: Q01DX005 (ip), vehicle: Klucel (hydroxypropylcellulose) (HPC)
  survivor count: 0 of 6

## N#CSCc1cc(Cl)c(Cl)cc1Cl
dose: 200.0 mg/kg/injection, schedule: Q04DX002 (ip), vehicle: Klucel (hydroxypropylcellulose) (HPC)
  survivor count: 1 of 6
dose: 400.0 mg/kg/injection, schedule: Q04DX002 (ip), vehicle: Klucel (hydroxypropylcellulose) (HPC)
  survivor count: 0 of 6

## CCCCCCCCCCCCCCCCCCCCN1CCOCC1
dose: 200.0 mg/kg/injection, schedule: Q01DX009 (ip), vehicle: saline with Tween-80
  survivor count: 4 of 6

## COc1cccc2c1OC1(N3CCOCC3)CCCCC1C2C[N+](=O)[O-] (configuration not stated)
[11]
  survivor count: 5 of 6

## CC1=Nc2nc(=N)nc3cccc(n23)N1
[10]
  survivor count: 1 of 6

## COc1cc2c(c(OC)c1OC)-c1ccc(SC)c(=O)cc1C(N(C)C(=O)C(F)(F)F)CC2 (configuration not stated)
dose: 5.0 mg/kg/injection, schedule: Q01DX009 (ip), vehicle: Klucel (hydroxypropylcellulose) (HPC)
  T/C: 126 and 139 % of control
dose: 10.0 mg/kg/injection, schedule: Q01DX009 (ip), vehicle: Klucel (hydroxypropylcellulose) (HPC)
  T/C: 135 and 145 % of control
dose: 40.0 mg/kg/injection, schedule: Q01DX009 (ip), vehicle: Klucel (hydroxypropylcellulose) (HPC)
  survivor count: 4 of 6

## Brc1ccc2c(ccc3c2nnc2nccn23)c1
dose: 120.0 mg/kg/injection, schedule: Q01DX005 (ip), vehicle: Klucel (hydroxypropylcellulose) (HPC)
  survivor count: 6 of 6

## CCNC(=O)OCc1c(COC(=O)NCC)c(-c2ccc(F)cc2)n2c1CCC2
dose: 6.25 mg/kg/injection, schedule: Q01DX009 (ip), vehicle: distilled water + Tween-80
  T/C: 127 % of control
dose: 12.5 mg/kg/injection, schedule: Q01DX009 (ip), vehicle: distilled water + Tween-80
  T/C: 133 % of control
dose: 25.0 mg/kg/injection, schedule: Q01DX009 (ip), vehicle: distilled water + Tween-80
  T/C: 129 % of control
dose: 50.0 mg/kg/injection, schedule: Q01DX009 (ip), vehicle: distilled water + Tween-80
  survivor count: 3 of 6

## CC(=O)NC(CC(C)C)C(=O)NC(CC(C)C)C(=O)NC(C=O)CCCN=C(N)N (configuration not stated)
dose: 400.0 mg/kg/injection, schedule: Q01DX001 (ip), vehicle: saline
  survivor count: 0 of 6

## O=C1C=C(NCCNCCO)C(=O)c2ccccc21
dose: 200.0 mg/kg/injection, schedule: Q01DX009 (ip), vehicle: distilled water + Tween-80
  survivor count: 3 of 6
dose: 400.0 mg/kg/injection, schedule: Q01DX009 (ip), vehicle: distilled water + Tween-80
  survivor count: 0 of 6

## COC1=C(OC)C(=O)C(Sc2ccccc2)=C(CO)C1=O
dose: 6.25 mg/kg/injection, schedule: Q01DX005 (ip), vehicle: saline with Tween-80
  survivor count: 6 of 6
dose: 25.0 mg/kg/injection, schedule: Q01DX005 (ip), vehicle: saline with Tween-80
  survivor count: 1 of 6
[9]
  survivor count: 0 of 6
[7]
  survivor count: 0 of 6
[8]
  survivor count: 0 of 6

## CCCCCn1c(Cl)c(/C=N\Nc2ccc([N+](=O)[O-])cc2)c2ccccc21
dose: 25.0 mg/kg/injection, schedule: Q01DX001 (ip), vehicle: Klucel (hydroxypropylcellulose) (HPC)
  survivor count: 6 of 6
dose: 50.0 mg/kg/injection, schedule: Q01DX001 (ip), vehicle: Klucel (hydroxypropylcellulose) (HPC)
  survivor count: 5 of 6
dose: 100.0 mg/kg/injection, schedule: Q01DX001 (ip), vehicle: Klucel (hydroxypropylcellulose) (HPC)
  survivor count: 6 of 6

## CCCCCC(CN(C)C)C(=O)/C=C/c1ccc(Cl)cc1 (configuration not stated)
dose: 100.0 mg/kg/injection, schedule: Q01DX009 (ip), vehicle: saline with Tween-80
  survivor count: 0 of 6

## c1cc2c3c(c1)c1cc4c(cc1c[n+]3CCC2)OCO4
dose: 6.25 mg/kg/injection, schedule: Q01DX009 (ip), vehicle: water
  T/C: 126 % of control
dose: 12.5 mg/kg/injection, schedule: Q01DX009 (ip), vehicle: water
  T/C: 126 and 131 % of control
dose: 18.8 mg/kg/injection, schedule: Q01DX009 (ip), vehicle: water
  T/C: 132 % of control
dose: 50.0 mg/kg/injection, schedule: Q01DX009 (ip), vehicle: water
  survivor count: 0 of 6
dose: 100.0 mg/kg/injection, schedule: Q01DX009 (ip), vehicle: water
  survivor count: 0 of 6
dose: 200.0 mg/kg/injection, schedule: Q01DX009 (ip), vehicle: water
  survivor count: 0 of 6

## O=C1OC2(C=C1Br)CCC21C=C(Br)C(=O)O1 (configuration not stated)
[4]
  survivor count: 1 of 6
[5]
  survivor count: 0 of 6

## O=C(O)c1ccc2cc3ccccc3cc2c1
[11]
  survivor count: 0 of 6

## CCOC(=O)CCC(=O)N(CCCNc1c2ccccc2nc2c(OC)cccc12)CCCNc1c2ccccc2nc2c(OC)cccc12
dose: 5.0 mg/kg/injection, schedule: Q01DX009 (ip), vehicle: water
  T/C: 130 % of control
dose: 10.0 mg/kg/injection, schedule: Q01DX009 (ip), vehicle: water
  T/C: 145 % of control [5 of 6 alive]

## O=P(C(=S)NC1CC2C=CC1C2)(c1ccccc1)c1ccccc1 (configuration not stated)
[4]
  survivor count: 6 of 6
[5]
  survivor count: 6 of 6
[6]
  survivor count: 5 of 6

## CNC(C)C#N (configuration not stated)
[1]
  survivor count: 0 of 6
[2]
  survivor count: 0 of 6
[3]
  survivor count: 0 of 6

## Cc1cn(C2CC(N=[N+]=[N-])C(CO)O2)c(=O)[nH]c1=S (configuration not stated)
[9]
  survivor count: 6 of 6
[7]
  survivor count: 6 of 6
[8]
  survivor count: 6 of 6
